According to US20240199572A1, “COMPOUNDS, COMPOSITIONS, AND METHODS FOR TREATING TYPE 2 DIABETES AND DEMENTIA” (THE BOARD OF TRUSTEES OF THE UNIVERSITY OF ILLINOIS, priority 2021, published 2024):
Marks after values point to notes of the source that are not given here.

Test system: C57Bl/6 control mice
Assay: C57Bl/6 control mice, daily p.o. CL2-57 for one week
Type: in vivo, mouse
Conditions: 10 mg/kg daily p.o. one week

CCOC(=O)c1cccc(NC(=O)c2sc(Cl)cc2S(=O)(=O)N(C)c2ccc(OCC)c(OCC)c2)c1 [CL2-57, ethyl 3-(5-chloro-3-(N-(3,4-diethoxyphenyl)-N-methylsulfamoyl)thiophene-2-carboxamido) benzoate]
Arachidate (20:0), CL2-57/Vehicle (liver free fatty acids): 3.08** | Butyrate/isobutyrate (4:0), CL2-57/Vehicle (liver free fatty acids): 0.71 | Caprate (10:0), CL2-57/Vehicle (liver free fatty acids): 1.18 | Caproate (6:0), CL2-57/Vehicle (liver free fatty acids): 1.49 | Caprylate (8:0), CL2-57/Vehicle (liver free fatty acids): 1.28 | Heptanoate (7:0), CL2-57/Vehicle (liver free fatty acids): 1.00 | Margarate (17:0), CL2-57/Vehicle (liver free fatty acids): 2.89** | Myristate (14:0), CL2-57/Vehicle (liver free fatty acids): 2.67** | Nonadecanoate (19:0), CL2-57/Vehicle (liver free fatty acids): 3.11** | Palmitate (16:0), CL2-57/Vehicle (liver free fatty acids): 2.90** | Pentadecanoate (15:0), CL2-57/Vehicle (liver free fatty acids): 2.93** | Stearate (18:0), CL2-57/Vehicle (liver free fatty acids): 2.47** | 1,5-Anhydroglucitol (1,5-AG), CL2-57/Vehicle (liver): 0.85 | 2,3-Diphosphoglycerate, CL2-57/Vehicle (liver): 0.84 | 2-Phosphoglycerate, CL2-57/Vehicle (liver): 0.94 | 3-Phosphoglycerate, CL2-57/Vehicle (liver): 0.84 | Dihydroxyacetone phosphate, CL2-57/Vehicle (liver): 0.75 | Fru/glu-1,6-diphosphate, CL2-57/Vehicle (liver): 0.87 | Fructose 6-phosphate, CL2-57/Vehicle (liver): 1.13 | Glucose 6-phosphate, CL2-57/Vehicle (liver): 0.71 | Glucose, CL2-57/Vehicle (liver): 0.96 | Glycerate, CL2-57/Vehicle (liver): 1.06 | Lactate, CL2-57/Vehicle (liver): 0.94 | Phosphoenolpyruvate (PEP), CL2-57/Vehicle (liver): 0.90 | Pyruvate, CL2-57/Vehicle (liver): 0.87 | 5-Dodecenoate (12:1n7), CL2-57/Vehicle (plasma free fatty acids): 1.33 | 10-Undecenoate (11:1n1), CL2-57/Vehicle (plasma free fatty acids): 1.05 | (2 or 3) -Decenoate (10:1n7 or n8), CL2-57/Vehicle (plasma free fatty acids): 1.16 | Arachidate (20:0), CL2-57/Vehicle (plasma free fatty acids): 1.09 | Butyrate/isobutyrate (4:0), CL2-57/Vehicle (plasma free fatty acids): 1.32 | Caprate (10:0), CL2-57/Vehicle (plasma free fatty acids): 1.07 | Caproate (6:0), CL2-57/Vehicle (plasma free fatty acids): 1.12 | Caprylate (8:0), CL2-57/Vehicle (plasma free fatty acids): 0.95 | Cis-4-decenoate (10:1n6), CL2-57/Vehicle (plasma free fatty acids): 1.00 | Heptanoate (7:0), CL2-57/Vehicle (plasma free fatty acids): 1.12 | Laurate (12:0), CL2-57/Vehicle (plasma free fatty acids): 1.20 | Margarate (17:0), CL2-57/Vehicle (plasma free fatty acids): 1.10 | Myristate (14:0), CL2-57/Vehicle (plasma free fatty acids): 1.28 | Nonadecanoate (19:0), CL2-57/Vehicle (plasma free fatty acids): 1.22 | Palmitate (16:0), CL2-57/Vehicle (plasma free fatty acids): 1.15 | Pentadecanoate (15:0), CL2-57/Vehicle (plasma free fatty acids): 1.07 | Stearate (18:0), CL2-57/Vehicle (plasma free fatty acids): 1.23* | 1,5-AG, CL2-57/Vehicle (plasma): 0.85^† | 2,3-Diphosphoglycerate, CL2-57/Vehicle (plasma): 1.04 | 3-Phosphoglycerate, CL2-57/Vehicle (plasma): 0.95 | Glucose, CL2-57/Vehicle (plasma): 1.00 | Glycerate, CL2-57/Vehicle (plasma): 1.07 | Lactate, CL2-57/Vehicle (plasma): 0.88 | PEP, CL2-57/Vehicle (plasma): 1.16 | Pyruvate, CL2-57/Vehicle (plasma): 0.99
